Earlier results, collected in patent publication US8486974B2 (priority 2007, dated 2013).
Some results were stated once for a whole list of compounds, not compound by compound.

Conditions: published data; cited from earlier work
In the case of COc1ccccc1OC(=O)c1ccccc1OC(C)=O [2-methoxyphenyl-2-acetoxybenzoate], the “aspirin produced when incubated in relevant biological matrices” value is given as no more than 0.5%. In the case of CC(=O)Oc1ccccc1C(=O)Oc1ccccc1 [2-acetoxybenzoic acid phenyl ester], the “aspirin produced when incubated in relevant biological matrices” value is given as no more than 0.5%. In the case of CC(=O)Nc1ccc(OC(=O)c2ccccc2OC(C)=O)cc1 [benorylate], the “aspirin produced when incubated in relevant biological matrices” value is given as no more than 0.5%.
